Data taken from PMC11402128, “The stability of FKBP9 maintained by BiP is crucial for glioma progression” (Genes & Diseases, 2023).

The chains behind the UniProt entries cited, without tags or fusion partners. Residues count along the entry.
UniProt P11021, residues 19-654: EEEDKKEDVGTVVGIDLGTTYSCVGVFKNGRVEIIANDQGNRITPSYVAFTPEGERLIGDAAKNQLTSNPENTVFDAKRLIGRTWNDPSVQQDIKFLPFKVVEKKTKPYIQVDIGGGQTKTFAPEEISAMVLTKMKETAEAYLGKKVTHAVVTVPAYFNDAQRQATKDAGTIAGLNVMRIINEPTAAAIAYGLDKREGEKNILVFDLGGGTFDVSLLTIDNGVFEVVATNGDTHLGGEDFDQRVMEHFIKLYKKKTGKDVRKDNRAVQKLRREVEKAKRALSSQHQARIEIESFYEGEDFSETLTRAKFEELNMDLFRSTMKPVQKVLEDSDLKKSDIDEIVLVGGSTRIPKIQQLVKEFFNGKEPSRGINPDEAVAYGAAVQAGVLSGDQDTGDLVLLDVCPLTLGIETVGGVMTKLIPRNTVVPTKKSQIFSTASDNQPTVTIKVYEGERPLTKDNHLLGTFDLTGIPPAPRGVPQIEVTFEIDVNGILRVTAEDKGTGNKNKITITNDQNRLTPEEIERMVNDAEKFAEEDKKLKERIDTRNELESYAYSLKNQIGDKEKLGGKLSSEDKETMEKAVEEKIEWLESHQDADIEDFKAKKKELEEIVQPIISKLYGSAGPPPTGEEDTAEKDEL

T1: Flag-HA-labeled FKBP9 (FKBP9-HA) (human) (UniProt O95302)
T1 sequence: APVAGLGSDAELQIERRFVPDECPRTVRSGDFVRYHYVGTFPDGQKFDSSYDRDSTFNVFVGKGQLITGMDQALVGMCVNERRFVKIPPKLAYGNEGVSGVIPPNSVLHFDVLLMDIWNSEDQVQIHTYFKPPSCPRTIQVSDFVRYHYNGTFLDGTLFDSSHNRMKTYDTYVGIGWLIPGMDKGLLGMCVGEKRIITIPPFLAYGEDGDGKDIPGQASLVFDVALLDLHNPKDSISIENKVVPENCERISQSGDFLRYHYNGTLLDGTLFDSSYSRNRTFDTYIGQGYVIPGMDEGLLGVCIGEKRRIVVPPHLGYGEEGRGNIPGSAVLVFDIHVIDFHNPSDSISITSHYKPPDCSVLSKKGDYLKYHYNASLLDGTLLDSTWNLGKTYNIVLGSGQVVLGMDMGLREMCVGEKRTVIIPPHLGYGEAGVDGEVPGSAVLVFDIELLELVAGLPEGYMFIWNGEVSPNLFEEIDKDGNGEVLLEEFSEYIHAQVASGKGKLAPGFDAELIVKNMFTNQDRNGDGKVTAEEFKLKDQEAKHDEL

B1: human recombinant protein FKBP9 (TP322307, Origene) (natural protein, UniProt O95302 25-570, looked up)
chain: T1 sequence
notes: also called purified FKBP9; source: bought: Origene (TP322307)

Columns and labels:
[1] = target: T1, Flag-HA-labeled FKBP9 (FKBP9-HA) (human); test: affinity purification with mass spectrometry; HA antibody co-immunoprecipitation from lysate of T98G cells infected with FKBP9-HA or EGFP-HA lentivirus; SDS-PAGE, silver staining, framed gel bands identified by LC-MS/MS; buffer 50 mM Tris-HCl pH 7.4, 150 mM NaCl, 3 mM EDTA, 0.5% Triton X-100
[2] = target: Flag-HA-labeled BiP (BiP-HA) (human) (UniProt P11021); test: affinity purification with mass spectrometry; HA antibody co-immunoprecipitation from lysate of T98G cells expressing BiP-HA or EGFP-HA; the elution identified by LC-MS/MS

Molecule	binding [1]	binding [2]
binding immunoglobulin protein (BiP), endogenous (from UniProt P11021 19-654)	binds	
B1		binds

These are yes or no findings as the source states them, for the method shown. Binding seen in cells or lysates may run through a third protein. Here binding means that the protein was enriched with, or labelled near, the bait; the list need not be complete. For some assays here: Tags and fused reporters may be left off the sequences shown.
